Test results from US9045507B2 (UNIVERSITY OF SOUTHERN CALIFORNIA, priority 2005, dated 2015).
Some peptides are written in HELM: one residue between dots, names in brackets for other building blocks, links after the first $.

Test: general procedure: Fmoc solid-phase peptide synthesis; Rink amide resin; HOBt/DIPCDI; PyBOP/HOBt for 10a
Settings: whole synthesis

Substance | isolated yield (scale 7.4×10^−5 mol) [%] | isolated yield (scale of the general procedure 100 mg resin, 7.4×10^−5 mol) [% yield]
DADE-Y-GPAA-NH2 | 33 | 
DADE-pCAP-GPAA-NH2 |  | 20
PEPTIDE1{D.A.D.E.[pTyr].G.P.A.A.[am]}$$$$V2.0 | 48 | 
